Measured values reported in patent publication US20220153864A1.
Results are given in words; binding and its absence hold for the method and conditions named. Some results given as binding are weak or reduced against the parent protein; the word gives no strength. Tags and fused reporters may be left off the sequences shown.

Molecular target: recombinant cynomolgus GPC3 (cyGPC3) (R&D Systems) (cynomolgus)
Assay: ELISA, cyGPC3 coated, binder titrated to 100 nM, detection anti-human IgG Fc-HRP or anti-NGAL-HRP, signal normalized

B1: GPC3 antibody as included in the fusion protein (SEQ ID NOs: 81 and 82) (antibody, human IgG4 S228P, kappa, F234A L235A, V domains shown)
VH: QVQLVQSGAEVKKPGASVKVSCKASGYTFTDYEMHWVRQAPGQGLEWMGALDPKTGDTAYSQKFKGRVTLTADKSTSTAYMELSSLTSEDTAVYYCTRFYSYTYWGQGTLVTLVS
VL: DVVMTQSPLSLPVTPGEPASISCRSSQSLVHSNRNTYLHWYLQKPGQSPQLLIYKVSNRFSGVPDRFSGSGSGTDFTLKISRVEAEDVGVYYCSQNTHVPPTFGQGTKLEIKR
  binding: binds
